# Patent publication US9115083B2 (Simpson Biotech Co., Ltd, priority 2011, dated 2015)
# The chains behind the UniProt entries cited, without tags or fusion partners.
# UniProt P27487, whole entry: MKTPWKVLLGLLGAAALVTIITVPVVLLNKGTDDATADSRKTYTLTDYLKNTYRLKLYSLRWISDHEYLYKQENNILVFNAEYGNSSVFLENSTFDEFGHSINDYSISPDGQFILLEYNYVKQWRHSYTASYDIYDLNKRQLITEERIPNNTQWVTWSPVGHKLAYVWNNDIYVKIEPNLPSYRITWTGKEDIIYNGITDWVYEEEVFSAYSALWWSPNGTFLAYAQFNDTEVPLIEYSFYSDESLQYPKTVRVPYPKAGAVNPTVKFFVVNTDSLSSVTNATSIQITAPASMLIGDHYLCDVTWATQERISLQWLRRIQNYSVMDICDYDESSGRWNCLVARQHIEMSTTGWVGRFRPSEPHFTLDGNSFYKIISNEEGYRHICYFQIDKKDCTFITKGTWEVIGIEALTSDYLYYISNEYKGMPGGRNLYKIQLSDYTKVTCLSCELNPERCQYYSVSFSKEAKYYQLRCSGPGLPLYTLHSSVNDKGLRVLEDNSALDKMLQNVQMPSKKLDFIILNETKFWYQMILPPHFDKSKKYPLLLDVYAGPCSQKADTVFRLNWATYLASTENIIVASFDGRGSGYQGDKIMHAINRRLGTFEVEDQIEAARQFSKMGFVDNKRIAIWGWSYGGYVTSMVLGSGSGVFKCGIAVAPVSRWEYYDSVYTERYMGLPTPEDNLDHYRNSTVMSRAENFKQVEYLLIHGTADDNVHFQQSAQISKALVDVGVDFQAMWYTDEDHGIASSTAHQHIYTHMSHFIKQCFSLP
# Biological target: dipeptidyl peptidase-IV (DPPIV) (Homo sapiens (Human), UniProt P27487)
# Assay: dipeptidyl peptidase-IV (DPPIV) assay
# Format: biochemical
# Conditions: Table 10, first scaffold
# Source text: In addition, the dipeptidyl peptidase-IV (DPPIV) assay herein was applied to investigate the DPPIV inhibitory activity of the prepared compounds as described above. The method of the DPPIV assay was described in Lin et al., 1998. Inhibition of dipeptidyl peptidase IV by fluoroolefin-containing N-peptidyl-O-hydroxylamine peptidomimetics. Proc. Natl. Acad. Sci. USA Vol. 95, pp. 14020-14024.
row,Structure (SMILES),IC50 against DPPIV
1,CC(C)=CCOc1ccc(C2=C(CC(C)C)C(=O)N(C(Cc3ccccc3)C(=O)NC3CC3)C2=O)cc1 (centres unmarked),> 100 μg/ml and 43 μg/ml
2,"CC(C)=CCOc1ccc(C2=C(CC(C)C)C(=O)N(C(CC(C)C)C(=O)NC3CC3)C2=O)cc1 (centres unmarked) [Compound A1-6, N-Cyclopropyl-2-(3-isobutyl-4-(4-(3-methylbut-2-enyloxy)phenyl)-2,5-dioxo-2,5-dihydro-1H-pyrrol-1-yl)-4-methylpentanamide]",> 100 μg/ml and 50 μg/ml

# Certain results were filed several times, with different values. The list is limited to them. There may be further records. The records of an entry do not match, cause unknown; some may be repeats, others may stem from another dose, organism or construct than stated.
